The list shows a part of the results. Further columns of the screen follow, without active or inactive calls. Most of these compounds were active or inconclusive in the main read-out, so they are no random draw. Words in brackets tell the shape of the fitted curve; partial curves, single points and poor fits give uncertain potencies.
Assay: qHTS Assay for Modulators of Human Peripheral Myelin Protein 22 (PMP22) Expression/Activity (AID 1967)
Settings: Cell-based PMP22 reporter, dual-color luciferase ratio; measured here: green reporter channel AC50; mouse Pmp22 promoter in mouse Schwann cells
Outline: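 Luminescence ratio of Pmp22 promoter-driven green luciferase to EF-alpha-driven red luciferase, in engineered mouse MSC80 Schwann cells, served as read-out. Compounds were incubated 24h; untreated cells defined 0% Activity; curves were classified by r2, magnitude and activity.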

SMILES | AC50
COc1ccc(NC(=O)/C=C/c2ccc(Cl)cc2)cc1 | 75.7 µM [falling, partial curve]
CN1CCN(CCCN2c3ccccc3Sc3ccc(C(F)(F)F)cc32)CC1 | 30.1 µM [falling, full curve]
CCOC(=O)N1CCC(=C2c3ccc(Cl)cc3CCc3cccnc32)CC1 | 42.6 µM [falling, partial curve]
O=c1cc(-c2ccc(O)cc2)oc2cc(O)cc(O)c12 | 3.01 µM [rising, full curve]
O=C1C(SCCO)=C(SCCO)C(=O)c2ccccc21 | 8.49 µM [falling, full curve]
CC(=O)[C@]1(O)Cc2c(O)c3c(c(O)c2[C@@H](O[C@H]2C[C@H](N)[C@H](O)[C@H](C)O2)C1)C(=O)c1ccccc1C3=O | 0.757 µM [falling, full curve]
COC1=C(OC)C(=O)c2ccccc2C1=O | 84.9 µM [falling, single point]
CN(C)CCCN1c2ccccc2Sc2ccc(C(F)(F)F)cc21 | 30.1 µM [falling, full curve]
CC/C(=C(\c1ccccc1)c1ccc(OCCN(C)C)cc1)c1ccccc1 | 33.8 µM [falling, full curve]
C[C@]12CC[C@@H]3c4ccc(O)cc4CC[C@H]3[C@@H]1CCC2=O | 6.75 µM [rising, partial curve]
CC(C)(Sc1ccc(CCN(CCCCC2CCCCC2)C(=O)NC2CCCCC2)cc1)C(=O)O | 67.5 µM [falling, partial curve]
COc1cc2ncnc(Nc3cccc(Cl)c3)c2cc1OC | 75.7 µM [falling, single point]
CC(C)c1ccc2c(c1)c(SC(C)(C)C)c(CC(C)(C)C(=O)O)n2Cc1ccc(Cl)cc1 | 60.1 µM [falling, partial curve]
Oc1ccc(/C=C/c2cc(O)cc(O)c2)cc1 | 84.9 µM [falling, single point]
Oc1ccc(-c2nc(-c3ccc(F)cc3)c(-c3ccncc3)[nH]2)cc1 | 33.8 µM [falling, partial curve]
C[n+]1cc2c3c(ccc2c2ccc4cc5c(cc4c21)OCO5)OCO3 | 23.9 µM [falling, full curve]
Oc1cc(O)cc(/C=C/c2ccc(O)c(O)c2)c1 | 42.6 µM [falling, partial curve]
Fc1ccc(C(c2ccc(F)cc2)N2CCN(C/C=C/c3ccccc3)CC2)cc1 | 47.8 µM [falling, partial curve]
O=C1c2c(O)ccc(O)c2C(=O)c2c(NCCNCCO)ccc(NCCNCCO)c21 | 2.13 µM [falling, full curve]
O=C(Nc1ccc([N+](=O)[O-])cc1Cl)c1cc(Cl)ccc1O | 1.9 µM [falling, full curve]

Same assay, conditions: Cell-based PMP22 reporter, dual-color luciferase ratio; measured here: red reporter channel AC50; EF-alpha promoter control reporter in MSC80 mouse Schwann cells

SMILES | AC50
COc1ccc(NC(=O)/C=C/c2ccc(Cl)cc2)cc1 | 13.5 µM [falling, full curve]
CN1CCN(CCCN2c3ccccc3Sc3ccc(C(F)(F)F)cc32)CC1 | 23.9 µM [falling, full curve]
COC(=O)Nc1nc2ccc(C(=O)c3cccs3)cc2[nH]1 | 26.9 µM [falling, full curve, poor fit]
NCC(O)C1CCCCCCC1 (stereo not given) | 47.8 µM [falling, partial curve]
CCOC(=O)N1CCC(=C2c3ccc(Cl)cc3CCc3cccnc32)CC1 | 42.6 µM [falling, partial curve]
O=c1cc(-c2ccc(O)cc2)oc2cc(O)cc(O)c12 | 60.1 µM [falling, partial curve, poor fit]
O=C1C(SCCO)=C(SCCO)C(=O)c2ccccc21 | 8.49 µM [falling, full curve]
CC(=O)[C@]1(O)Cc2c(O)c3c(c(O)c2[C@@H](O[C@H]2C[C@H](N)[C@H](O)[C@H](C)O2)C1)C(=O)c1ccccc1C3=O | 0.426 µM [falling, full curve]
CN(C)CCCN1c2ccccc2Sc2ccc(C(F)(F)F)cc21 | 26.9 µM [falling, full curve]
CC/C(=C(\c1ccccc1)c1ccc(OCCN(C)C)cc1)c1ccccc1 | 30.1 µM [falling, full curve, poor fit]
CC(C)(Sc1ccc(CCN(CCCCC2CCCCC2)C(=O)NC2CCCCC2)cc1)C(=O)O | 84.9 µM [falling, single point]
COc1cc2ncnc(Nc3cccc(Cl)c3)c2cc1OC | 75.7 µM [falling, single point]
CC(C)c1ccc2c(c1)c(SC(C)(C)C)c(CC(C)(C)C(=O)O)n2Cc1ccc(Cl)cc1 | 33.8 µM [falling, partial curve]
Oc1ccc(/C=C/c2cc(O)cc(O)c2)cc1 | 42.6 µM [falling, full curve]
Oc1ccc(-c2nc(-c3ccc(F)cc3)c(-c3ccncc3)[nH]2)cc1 | 26.9 µM [falling, full curve]
C[n+]1cc2c3c(ccc2c2ccc4cc5c(cc4c21)OCO5)OCO3 | 9.53 µM [falling, full curve]
Oc1cc(O)cc(/C=C/c2ccc(O)c(O)c2)c1 | 30.1 µM [falling, full curve]
Fc1ccc(C(c2ccc(F)cc2)N2CCN(C/C=C/c3ccccc3)CC2)cc1 | 53.6 µM [falling, partial curve]
O=C1c2c(O)ccc(O)c2C(=O)c2c(NCCNCCO)ccc(NCCNCCO)c21 | 26.9 µM [falling, full curve]
O=C(Nc1ccc([N+](=O)[O-])cc1Cl)c1cc(Cl)ccc1O | 0.379 µM [falling, full curve]

From PubChem BioAssay (NCATS)
